Measured values reported in patent US9853225B2, “Chalcogen-containing organic compound and a use thereof” (JNC CORPORATION, priority 2013, dated 2017).

Key:
[1] = Bottom gate-top contact organic FET, film formed by vapor deposition method: carrier mobility and ON/OFF ratio; conditions: thickness 75 nm
Procedure: Device preparation by the application method was not possible with regard to the chalcogen-containing organic compound in Comparative Example 1. Therefore, a device was prepared by the vapor deposition method for the chalcogen-containing organic compounds in Examples 1, 3, 4, 7 and Comparative Example 1, and FET characteristics were compared.
Ultrasonic cleaning was performed to a silicon substrate with the thermally oxidized silicon insulating film (film thickness: 500 nm) described above for 5 minutes using acetone and 2-propanol for each, and subsequently UV ozone treatment was performed for 30 minutes. On a surface of the substrate subjected to cleaning treatment, a self-assembled monolayer of DTS was formed according to a vapor method, and then a chalcogen-containing organic compound was vapor-deposited at a vapor deposition rate of 0.4 to 0.6 Å/s to form an organic semiconductor layer having a film thickness of 75 nm. Subsequently, a carrier injection layer (film thickness: 1 nm) of tetrafluorotetracyanoquinodimethane was formed through a stainless-steel metallic mask, and subsequently a gold source electrode and a gold drain electrode (film thickness: 30 nm) were vapor-deposited in vacuo to form a channel length of 100 μm and a channel width of 1 mm and to prepare a bottom gate-top contact type organic FET.
Carrier mobility and an ON/OFF ratio were measured on the thus prepared device using Semiconductor Parameter Analyzer (model number “Keithley 4200”, made by Keithley Instruments Inc.).

[2] = Bottom gate-top contact organic FET, film formed by edge-cast method: carrier mobility and ON/OFF ratio; conditions: 0.2 mass % solution, DTS-treated Si/SiO2 substrate
Procedure: In accordance with an application method (edge-cast method; Appl. Phys. Exp. 2, 111501 (2009)) developed by the present inventors, film formation and preparation of a bottom gate-top contact type organic FET were performed.
Surface treatment was performed to a silicon substrate (made by Fujimi Fine Technology Inc.) by decyltriethoxysilane (DTS) to obtain a silicon substrate (hereinafter, also referred to as “substrate”) with a thermally oxidized silicon insulating film (film thickness: 500 nm). On the substrate, a solution-holding silicon substrate fragment (hereinafter, also referred to as “solution holding structure”) was placed. While inclining the substrate, an 1,2-dimethoxybenzene solution of a chalcogen-containing organic compound synthesized in Examples or a 1,2-dichloroethane solution thereof (concentration of chalcogen-containing organic compound: 0.2 mass %) (organic semiconductor solution) was dripped at 120° C. onto an edge of the solution holding structure. While a crystal grew with evaporation of the solvent, the crystal stuck to the substrate, and crystal growth was completed in several minutes. In this state, the grown crystal was allowed to stand overnight (11 hours) under argon atmosphere at 60 to 100° C. to completely dry a crystal film (film thickness: 30 to 150 nm). On the crystal film obtained, a carrier injection layer (film thickness: 1 nm) of tetrafluorotetracyanoquinodimethane was formed through a stainless-steel metallic mask, and subsequently a gold source electrode and a gold drain electrode (film thickness: 30 nm) were vapor-deposited in vacuo to form a channel length of 100 μm and a channel width of 1 mm and to prepare a bottom gate-top contact type organic FET. Carrier mobility and an ON/OFF ratio were measured on the thus prepared device using Semiconductor Parameter Analyzer (model number “Keithley 4200”, made by Keithley Instruments Inc.).
Preparation of the organic transistor device and evaluation of characteristics thereof as described above were performed on the compounds obtained in Examples 2, 3 to 5. In addition, in the compound of Comparative Example 1, preparation of a two-dimensional crystal film with high quality was not allowed according to the solution process, and film formation by the above application method was difficult. As a result, with regard to the compound in Comparative Example 1, preparation of the organic transistor device by the above application method and evaluation of the characteristics thereof were not possible.

In the case of `c1ccc2cc3c(cc2c1)sc1cc2c(cc13)sc1cc3ccccc3cc12` [Comparative Example 1, dinaphtho[2,3-d:2′,3′-d′]benzo[1,2-b:4,5-b′]dithiophene, reference compound], the Carrier mobility [1] is reported as 0.08 cm^2/V·s and the ON-OFF ratio [1] is reported as 10^4.

In the case of `CCCCCCCCCCc1ccc2cc3oc4cc5c(cc4c3cc2c1)oc1cc2ccc(CCCCCCCCCC)cc2cc15` [Example 1, 2,10-didecyldinaphtho[2,3-d:2′,3′-d′]benzo[1,2-b:4,5-b′]difuran], the Carrier mobility [1] is reported as 0.78 cm^2/V·s and the ON-OFF ratio [1] is reported as 10^5.

With `CCCCCCCCCCc1ccc2cc3sc4cc5c(cc4c3cc2c1)sc1cc2ccc(CCCCCCCCCC)cc2cc15` [Example 2, 2,10-didecyldinaphtho[2,3-d:2′,3′-d′]benzo[1,2-b:4,5-b′]dithiophene] the Carrier mobility [2] was 0.015 cm^2/V·s and the ON-OFF ratio [2] was 10^5.

In the case of `CCCCCCCCCCc1ccc2cc3c(cc2c1)oc1cc2c(cc13)oc1cc3cc(CCCCCCCCCC)ccc3cc12` [Example 3, 3,11-didecyldinaphtho[2,3-d:2′,3′-d′]benzo[1,2-b:4,5-b′]difuran], the Carrier mobility [2] is reported as 0.50 cm^2/V·s, the ON-OFF ratio [2] is reported as 10^5 10^5 and the Carrier mobility [1] is reported as 0.24 cm^2/V·s. For the same molecule, the ON-OFF ratio [1] was 10^5 10^5.

With `CCCCCCCCCCc1ccc2cc3c(cc2c1)sc1cc2c(cc13)sc1cc3cc(CCCCCCCCCC)ccc3cc12` [Example 4, 3,11-didecyldinaphtho[2,3-d:2′,3′-d′]benzo[1,2-b:4,5-b′]dithiophene] the Carrier mobility [2] was 16 cm^2/V·s, the ON-OFF ratio [2] was 10^7 and the Carrier mobility [1] was 1.4 cm^2/V·s. The ON-OFF ratio [1] was 10^4.

With `CCCCCCc1ccc2cc3c(cc2c1)sc1cc2c(cc13)sc1cc3cc(CCCCCC)ccc3cc12` [Example 5, 3,11-dihexyldinaphtho[2,3-d:2′,3′-d′]benzo[1,2-b:4,5-b′]dithiophene] the Carrier mobility [2] was 1.3 cm^2/V·s and the ON-OFF ratio [2] was 10^6.

For `CCCCCCCCCCc1ccc2cc3c(cc2c1)sc1cc2cc4c(cc2cc13)sc1cc2cc(CCCCCCCCCC)ccc2cc14` [Example 7], the Carrier mobility [1] was 0.90 cm^2/V·s and the ON-OFF ratio [1] was 10^5.
